Results from paper PMC5172368.
No constants are given. Whether binding was seen depends on the method and setting. Binding seen in cells or lysates may run through a third protein. Binding can be weak; no strength is given.

Assays:
[1] = molecular target: ORP2 HFD peptide (oocyst rupture protein 2, aa 7-156) with N-terminal poly-His tag (Plasmodium berghei); assay: pull-down; Ni-NTA agarose beads with cleared E. coli lysate co-expressing His-ORP2 and S-tagged ORP1; overnight at 4 °C; 500 mM NaCl, 150 mM Tris pH 8.0, 10% glycerol, 10 mM imidazole; washes with 300 mM NaCl; elution with 300 mM imidazole; western blot with antibodies against the tags
[2] = molecular target: ORP1 HFD peptide (oocyst rupture protein 1, aa 750-872) with C-terminal S-tag (Plasmodium berghei); assay: co-IP; antibody against the S-tag on Protein G Sepharose beads incubated with cleared E. coli lysate containing both peptides; 300 mM NaCl, 50 mM Tris pH 7.4, 1% Triton X-100, 1 mM PMSF; His-ORP2 detected with anti-His-6 antibody on western blot

Row | Substance | binding [1] | binding [2]
1 | ORP1 HFD peptide (oocyst rupture protein 1, aa 750-872) with C-terminal S-tag (from UniProt A0A509AJ88) (domain or fragment) | binds | –
2 | ORP2 HFD peptide (oocyst rupture protein 2, aa 7-156) with N-terminal poly-His tag (from UniProt A0A509AVP1) (domain or fragment) | – | binds
